{"source": "PubChem BioAssay AID1671195 (Yale University, 2021)", "screen": "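Knockdowns that increase or decrease uptake of fluorescent LDL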 (primary screen)", "cell system": "human Huh7 hepatoma cells", "reagent": "siRNA pool against human genes, 18 nM", "duration": "about 2 to 2.5 days of knockdown, then 8 h LDL uptake", "challenge": "DiI-labelled LDL at 30 µg/ml for 8 h, in lipoprotein-deficient serum medium", "read-out": "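Fluorescent LDL signal imaged in cells, scaled to the plate median, robust z-score for each replicate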", "scale": "robust z-score: higher = more LDL uptake after knockdown", "active means": "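a gene counts as active if at least two replicate z-scores exceed ±2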", "note": "The whole screen tested about 22,000 reagents; below is an unselected part. In the full data, about 1,510 (6.9%) were called active. 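Active includes knockdowns raising or lowering LDL uptake; positive z-scores mean more uptake, negative mean less.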"}
{"gene":"WDR59","robust z-score, replicate 1":0.804,"robust z-score, replicate 2":1.7,"robust z-score, replicate 3":2.08,"Outcome":"inactive"}
{"gene":"RNF144B","robust z-score, replicate 1":2.86,"robust z-score, replicate 2":1.85,"robust z-score, replicate 3":2.26,"Outcome":"active"}
{"gene":"OMG","robust z-score, replicate 1":-2.08,"robust z-score, replicate 2":-1.99,"robust z-score, replicate 3":-1.89,"Outcome":"active"}
{"gene":"KCNAB2","robust z-score, replicate 1":1.49,"robust z-score, replicate 2":0.964,"robust z-score, replicate 3":1.78,"Outcome":"inactive"}
{"gene":"PDYN","robust z-score, replicate 1":4.22,"robust z-score, replicate 2":2.32,"robust z-score, replicate 3":3.14,"Outcome":"active"}
{"gene":"ZNF287","robust z-score, replicate 1":1.2,"robust z-score, replicate 2":1,"robust z-score, replicate 3":0.721,"Outcome":"inactive"}
{"gene":"GNA15","robust z-score, replicate 1":0.355,"robust z-score, replicate 2":0.79,"robust z-score, replicate 3":1.34,"Outcome":"inactive"}
{"gene":"LOC399969 (retired record)","robust z-score, replicate 1":1.06,"robust z-score, replicate 2":0.443,"robust z-score, replicate 3":0.0436,"Outcome":"inactive"}
{"gene":"CCNE1","robust z-score, replicate 1":-1.13,"robust z-score, replicate 2":-0.782,"robust z-score, replicate 3":-1.23,"Outcome":"inactive"}
{"gene":"CSF2RA","robust z-score, replicate 1":3.85,"robust z-score, replicate 2":2.36,"robust z-score, replicate 3":2.98,"Outcome":"active"}
{"gene":"NEURL2","robust z-score, replicate 1":-0.378,"robust z-score, replicate 2":0.291,"robust z-score, replicate 3":-0.0323,"Outcome":"inactive"}
{"gene":"LOC390801 (retired record)","robust z-score, replicate 1":0.643,"robust z-score, replicate 2":0.595,"robust z-score, replicate 3":0.688,"Outcome":"inactive"}
{"gene":"LOC440979 (retired record)","robust z-score, replicate 1":0.625,"robust z-score, replicate 2":1.66,"robust z-score, replicate 3":1.22,"Outcome":"inactive"}
{"gene":"TMCC3","robust z-score, replicate 1":-1.94,"robust z-score, replicate 2":-1.27,"robust z-score, replicate 3":-1.21,"Outcome":"inactive"}
{"gene":"DTYMK","robust z-score, replicate 1":-0.477,"robust z-score, replicate 2":-0.428,"robust z-score, replicate 3":-0.623,"Outcome":"inactive"}
{"gene":"JAML","robust z-score, replicate 1":2.4,"robust z-score, replicate 2":1.76,"robust z-score, replicate 3":1.03,"Outcome":"inactive"}
{"gene":"SERPIND1","robust z-score, replicate 1":-2.2,"robust z-score, replicate 2":-1.7,"robust z-score, replicate 3":-0.564,"Outcome":"inactive"}
{"gene":"TXNDC8","robust z-score, replicate 1":-0.537,"robust z-score, replicate 2":-0.921,"robust z-score, replicate 3":-1.17,"Outcome":"inactive"}
{"gene":"CASS4","robust z-score, replicate 1":0.708,"robust z-score, replicate 2":2.35,"robust z-score, replicate 3":1.94,"Outcome":"inactive"}
{"gene":"ZDHHC12","robust z-score, replicate 1":0.765,"robust z-score, replicate 2":-0.119,"robust z-score, replicate 3":0.925,"Outcome":"inactive"}
{"gene":"AGMO","robust z-score, replicate 1":0.299,"robust z-score, replicate 2":0.402,"robust z-score, replicate 3":0.93,"Outcome":"inactive"}
{"gene":"LHFPL4","robust z-score, replicate 1":-1.27,"robust z-score, replicate 2":-1.44,"robust z-score, replicate 3":-1.36,"Outcome":"inactive"}
{"gene":"LOC345711 (retired record)","robust z-score, replicate 1":-0.231,"robust z-score, replicate 2":-0.636,"robust z-score, replicate 3":-0.13,"Outcome":"inactive"}
{"gene":"SPRED2","robust z-score, replicate 1":-0.895,"robust z-score, replicate 2":-1.16,"robust z-score, replicate 3":-0.629,"Outcome":"inactive"}

2 successive reagents from above, for reference:
{"gene":"WDR59","robust z-score, replicate 1":0.804,"robust z-score, replicate 2":1.7,"robust z-score, replicate 3":2.08,"Outcome":"inactive"}
{"gene":"RNF144B","robust z-score, replicate 1":2.86,"robust z-score, replicate 2":1.85,"robust z-score, replicate 3":2.26,"Outcome":"active"}
